# The supplement of paper PMC8728848
# The list shows a part of the results.
# B1: AT1G80310(18) (Arabidopsis thaliana), Q0WP36 (protein)
# chain: METTTTPLLPGDRSRCGWLRRRLRLKNPLSSELSGAVGDLGTFIPIVLTLTLVSNLDLSTTLIFTGFYNIATGLLFDIPMPVQPMKSIAAVAVSESPHLTPSQIAAAGASTAATLLLLGATGAMSFLYNIIPLPVVRGVQLSQGLQFAFTAIKYVRFNYDTATLKPSSSPRIWLGLDGLILALAALLFIILSTGSGNDREAEDGDLAETSSNESQSRRRRLRLLSSIPSALIVFALGLVLCFIRDPSIFKDLKFGPSKFHILRISWDDWKIGFLRAAIPQIPLSVLNSVIAVCKLSNDLFDKELSATTVSISVGVMNLIGCWFGAMPVCHGAGGLAGQYRFGARSGLSVIFLGIGKLIVGLVFGNSFVRILSQFPIGILGVLLLFAGIELAMASKDMNSKEDSFIMLVCAAVSMTGSSAALGFGCGVVLYLLLKLRTLDCSSVTLFSRSSDESQVDSEAAPRDV
# Key:
# Experiment in all cases: glycan array binding signal (z-score within array); higher = stronger binding
# Settings in all cases: glycan notation: IUPAC condensed, linker removed
# [1] = biological target: Neu5Ac(a2-3)Gal(b1-4)GlcNAc(b1-2)[Neu5Ac(a2-3)Gal(b1-4)GlcNAc(b1-4)]Man(a1-3)[GlcNAc(b1-4)][Neu5Ac(a2-3)Gal(b1-4)GlcNAc(b1-2)[Neu5Ac(a2-3)Gal(b1-4)GlcNAc(b1-6)]Man(a1-6)]Man(b1-4)GlcNAc(b1-4)GlcNAc
# Summary of the method: (§1)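 From the Consortium for Functional Glycomics database, 3228 arrays were curated, keeping only those whose protein sequence was available. Binding is given as a within-array Z-score averaged across arrays sharing a protein sequence and across linkers. Negative Z-scores can be read as non-binding.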
# [2] = biological target: Neu5Ac(a2-3)Gal(b1-4)GlcNAc(b1-2)[Neu5Ac(a2-3)Gal(b1-4)GlcNAc(b1-4)]Man(a1-3)[GlcNAc(b1-4)][Neu5Ac(a2-3)Gal(b1-4)GlcNAc(b1-4)Man(a1-6)]Man(b1-4)GlcNAc(b1-4)GlcNAc
# Summary of the method: as §1
# [3] = biological target: Neu5Ac(a2-3)Gal(b1-4)GlcNAc(b1-2)[Neu5Ac(a2-3)Gal(b1-4)GlcNAc(b1-6)]Man(a1-6)[Neu5Ac(a2-3)Gal(b1-4)GlcNAc(b1-2)Man(a1-3)]Man(b1-4)GlcNAc(b1-4)GlcNAc
# Summary of the method: as §1
# [4] = biological target: Neu5Ac(a2-3)Gal(b1-4)GlcNAc(b1-2)[Neu5Ac(a2-3)Gal(b1-4)GlcNAc(b1-6)]Man(a1-6)[Neu5Ac(a2-3)Gal(b1-4)GlcNAc(b1-2)Man(a1-3)][GlcNAc(b1-4)]Man(b1-4)GlcNAc(b1-4)GlcNAc
# Summary of the method: as §1
# [5] = biological target: Neu5Ac(a2-3)Gal(b1-4)GlcNAc(b1-3)Gal
# Summary of the method: as §1
# [6] = biological target: Neu5Ac(a2-3)Gal(b1-4)GlcNAc(b1-3)Gal(b1-3)GlcNAc
# Summary of the method: as §1
# [7] = biological target: Neu5Ac(a2-3)Gal(b1-4)GlcNAc(b1-3)Gal(b1-4)GlcNAc
# Summary of the method: as §1
# [8] = biological target: Neu5Ac(a2-3)Gal(b1-4)GlcNAc(b1-3)Gal(b1-4)GlcNAc(b1-2)Man(a1-3)[Neu5Ac(a2-3)Gal(b1-4)GlcNAc(b1-3)Gal(b1-4)GlcNAc(b1-2)Man(a1-6)]Man(b1-4)GlcNAc(b1-4)GlcNAc
# Summary of the method: as §1
# [9] = biological target: Neu5Ac(a2-3)Gal(b1-4)GlcNAc(b1-3)Gal(b1-4)GlcNAc(b1-3)Gal(b1-4)GlcNAc
# Summary of the method: as §1
# [10] = biological target: Neu5Ac(a2-3)Gal(b1-4)GlcNAc(b1-3)Gal(b1-4)GlcNAc(b1-3)Gal(b1-4)GlcNAc(b1-2)Man(a1-3)[Neu5Ac(a2-3)Gal(b1-4)GlcNAc(b1-3)Gal(b1-4)GlcNAc(b1-3)Gal(b1-4)GlcNAc(b1-2)Man(a1-6)]GalNAc
# Summary of the method: as §1
# [11] = biological target: Neu5Ac(a2-3)Gal(b1-4)GlcNAc(b1-3)Gal(b1-4)GlcNAc(b1-3)GalNAc
# Summary of the method: as §1
# [12] = biological target: Neu5Ac(a2-3)Gal(b1-4)GlcNAc(b1-3)Gal(b1-4)GlcNAc(b1-3)[Neu5Ac(a2-3)Gal(b1-4)GlcNAc(b1-3)Gal(b1-4)GlcNAc(b1-6)]GalNAc
# Summary of the method: as §1
# [13] = biological target: Neu5Ac(a2-3)Gal(b1-4)GlcNAc(b1-3)Gal(b1-4)GlcNAc(b1-6)[Gal(b1-3)]GalNAc
# Summary of the method: as §1
# [14] = biological target: Neu5Ac(a2-3)Gal(b1-4)GlcNAc(b1-3)Gal(b1-4)[Fuc(a1-3)]GlcNAc
# Summary of the method: as §1
# [15] = biological target: Neu5Ac(a2-3)Gal(b1-4)GlcNAc(b1-3)GalNAc
# Summary of the method: as §1
# [16] = biological target: Neu5Ac(a2-3)Gal(b1-4)GlcNAc(b1-3)[Neu5Ac(a2-3)Gal(b1-4)GlcNAc(b1-6)]GalNAc
# Summary of the method: as §1
# [17] = biological target: Neu5Ac(a2-3)Gal(b1-4)GlcNAc(b1-6)GalNAc
# Summary of the method: as §1
# [18] = biological target: Neu5Ac(a2-3)Gal(b1-4)GlcNAc(b1-6)[Gal(b1-3)]GalNAc
# Summary of the method: as §1
# [19] = biological target: Neu5Ac(a2-3)Gal(b1-4)GlcNAc(b1-6)[Neu5Ac(a2-3)Gal(b1-3)]GalNAc
# Summary of the method: as §1
# [20] = biological target: Neu5Ac(a2-3)Gal(b1-4)GlcNAc6S
# Summary of the method: as §1
# [21] = biological target: Neu5Ac(a2-3)Gal(b1-4)[Fuc(a1-3)]GlcNAc
# Summary of the method: as §1
# [22] = biological target: Neu5Ac(a2-3)Gal(b1-4)[Fuc(a1-3)]GlcNAc(b1-2)Man
# Summary of the method: as §1
# [23] = biological target: Neu5Ac(a2-3)Gal(b1-4)[Fuc(a1-3)]GlcNAc(b1-3)Gal
# Summary of the method: as §1
# [24] = biological target: Neu5Ac(a2-3)Gal(b1-4)[Fuc(a1-3)]GlcNAc(b1-3)Gal(b1-4)GlcNAc
# Summary of the method: as §1
# [25] = biological target: Neu5Ac(a2-3)Gal(b1-4)[Fuc(a1-3)]GlcNAc(b1-3)Gal(b1-4)[Fuc(a1-3)]GlcNAc(b1-3)Gal(b1-4)[Fuc(a1-3)]GlcNAc
# Summary of the method: as §1
# [26] = biological target: Neu5Ac(a2-3)Gal(b1-4)[Fuc(a1-3)]GlcNAc(b1-3)GalNAc
# Summary of the method: as §1
# [27] = biological target: Neu5Ac(a2-3)Gal(b1-4)[Fuc(a1-3)]GlcNAc(b1-6)[Gal(b1-3)]GalNAc
# Summary of the method: as §1
# [28] = biological target: Neu5Ac(a2-3)Gal(b1-4)[Fuc(a1-3)]GlcNAc(b1-6)[Neu5Ac(a2-3)Gal(b1-3)]GalNAc
# Summary of the method: as §1
# [29] = biological target: Neu5Ac(a2-3)Gal(b1-4)[Fuc(a1-3)]GlcNAc6S
# Summary of the method: as §1
# [30] = biological target: Neu5Ac(a2-3)Gal6S(b1-4)GlcNAc
# Summary of the method: as §1
# [31] = biological target: Neu5Ac(a2-3)Gal6S(b1-4)[Fuc(a1-3)]GlcNAc
# Summary of the method: as §1
# Neu5Ac(a2-3)GalNAc = biological target: Neu5Ac(a2-3)GalNAc
# Summary of the method: as §1
# [32] = biological target: Neu5Ac(a2-3)GalNAc(b1-4)GlcNAc
# Summary of the method: as §1
# [33] = biological target: Neu5Ac(a2-3)[GalNAc(b1-4)]Gal(b1-4)Glc
# Summary of the method: as §1
# [34] = biological target: Neu5Ac(a2-3)[GalNAc(b1-4)]Gal(b1-4)GlcNAc
# Summary of the method: as §1
# [35] = biological target: Neu5Ac(a2-3)[GalNAc(b1-4)]Gal(b1-4)GlcNAc(b1-3)GalNAc
# Summary of the method: as §1
# [36] = biological target: Neu5Ac(a2-3)[Neu5Ac(a2-6)]GalNAc
# Summary of the method: as §1
# Neu5Ac(a2-6)Gal = biological target: Neu5Ac(a2-6)Gal
# Summary of the method: as §1
# [37] = biological target: Neu5Ac(a2-6)Gal(b1-3)GlcNAc(b1-3)[Gal(b1-4)GlcNAc(b1-6)]Gal(b1-4)Glc
# Summary of the method: as §1
# Neu5Ac(a2-6)Gal(b1-4)Glc = biological target: Neu5Ac(a2-6)Gal(b1-4)Glc
# Summary of the method: as §1
# [38] = biological target: Neu5Ac(a2-6)Gal(b1-4)GlcNAc
# Summary of the method: as §1
# [39] = biological target: Neu5Ac(a2-6)Gal(b1-4)GlcNAc(b1-2)Man
# Summary of the method: as §1
# [40] = biological target: Neu5Ac(a2-6)Gal(b1-4)GlcNAc(b1-2)Man(a1-3)Man(b1-4)GlcNAc(b1-4)GlcNAc
# Summary of the method: as §1
# [41] = biological target: Neu5Ac(a2-6)Gal(b1-4)GlcNAc(b1-2)Man(a1-3)[Gal(b1-4)GlcNAc(b1-2)Man(a1-6)]Man(b1-4)GlcNAc(b1-4)GlcNAc
# Summary of the method: as §1
# [42] = biological target: Neu5Ac(a2-6)Gal(b1-4)GlcNAc(b1-2)Man(a1-3)[GlcNAc(b1-2)Man(a1-6)]Man(b1-4)GlcNAc(b1-4)GlcNAc
# Summary of the method: as §1
binder,measurement,setting,value
B1,glycan array binding signal (z-score),[1],1.21
same,glycan array binding signal (z-score),[2],0.431
same,glycan array binding signal (z-score),[3],0.367
same,glycan array binding signal (z-score),[4],-0.012
same,glycan array binding signal (z-score),[5],-0.893
same,glycan array binding signal (z-score),[6],-0.162
same,glycan array binding signal (z-score),[7],-0.967
same,glycan array binding signal (z-score),[8],-0.826
same,glycan array binding signal (z-score),[9],-0.62
same,glycan array binding signal (z-score),[10],-0.823
same,glycan array binding signal (z-score),[11],0.212
same,glycan array binding signal (z-score),[12],-0.851
same,glycan array binding signal (z-score),[13],-0.872
same,glycan array binding signal (z-score),[14],-0.869
same,glycan array binding signal (z-score),[15],0.517
same,glycan array binding signal (z-score),[16],-0.652
same,glycan array binding signal (z-score),[17],-0.434
same,glycan array binding signal (z-score),[18],-0.941
same,glycan array binding signal (z-score),[19],-1.06
same,glycan array binding signal (z-score),[20],-0.892
same,glycan array binding signal (z-score),[21],0.167
same,glycan array binding signal (z-score),[22],0.109
same,glycan array binding signal (z-score),[23],-0.507
same,glycan array binding signal (z-score),[24],1.02
same,glycan array binding signal (z-score),[25],-0.797
same,glycan array binding signal (z-score),[26],0.629
same,glycan array binding signal (z-score),[27],0.507
same,glycan array binding signal (z-score),[28],0.138
same,glycan array binding signal (z-score),[29],-0.834
same,glycan array binding signal (z-score),[30],1.19
same,glycan array binding signal (z-score),[31],-0.748
same,glycan array binding signal (z-score),Neu5Ac(a2-3)GalNAc,-0.767
same,glycan array binding signal (z-score),[32],-0.876
same,glycan array binding signal (z-score),[33],-0.643
same,glycan array binding signal (z-score),[34],-1
same,glycan array binding signal (z-score),[35],-0.959
same,glycan array binding signal (z-score),[36],-0.261
same,glycan array binding signal (z-score),Neu5Ac(a2-6)Gal,-0.868
same,glycan array binding signal (z-score),[37],-0.366
same,glycan array binding signal (z-score),Neu5Ac(a2-6)Gal(b1-4)Glc,0.38
same,glycan array binding signal (z-score),[38],-0.385
same,glycan array binding signal (z-score),[39],-0.534
same,glycan array binding signal (z-score),[40],-0.94
same,glycan array binding signal (z-score),[41],-0.569
same,glycan array binding signal (z-score),[42],-0.532

# No new results follow: entries from further up.
binder,measurement,setting,value
B1,glycan array binding signal (z-score),[17],-0.434
same,glycan array binding signal (z-score),[18],-0.941
